No constants are given. Whether binding was seen depends on the method and setting. Binding seen in cells or lysates may run through a third protein. Some binding calls cover weakened binding; strength is not graded here.

This assay deals with T1, Protocadherin 19 (UniProt Q8TAB3).
T1 sequence: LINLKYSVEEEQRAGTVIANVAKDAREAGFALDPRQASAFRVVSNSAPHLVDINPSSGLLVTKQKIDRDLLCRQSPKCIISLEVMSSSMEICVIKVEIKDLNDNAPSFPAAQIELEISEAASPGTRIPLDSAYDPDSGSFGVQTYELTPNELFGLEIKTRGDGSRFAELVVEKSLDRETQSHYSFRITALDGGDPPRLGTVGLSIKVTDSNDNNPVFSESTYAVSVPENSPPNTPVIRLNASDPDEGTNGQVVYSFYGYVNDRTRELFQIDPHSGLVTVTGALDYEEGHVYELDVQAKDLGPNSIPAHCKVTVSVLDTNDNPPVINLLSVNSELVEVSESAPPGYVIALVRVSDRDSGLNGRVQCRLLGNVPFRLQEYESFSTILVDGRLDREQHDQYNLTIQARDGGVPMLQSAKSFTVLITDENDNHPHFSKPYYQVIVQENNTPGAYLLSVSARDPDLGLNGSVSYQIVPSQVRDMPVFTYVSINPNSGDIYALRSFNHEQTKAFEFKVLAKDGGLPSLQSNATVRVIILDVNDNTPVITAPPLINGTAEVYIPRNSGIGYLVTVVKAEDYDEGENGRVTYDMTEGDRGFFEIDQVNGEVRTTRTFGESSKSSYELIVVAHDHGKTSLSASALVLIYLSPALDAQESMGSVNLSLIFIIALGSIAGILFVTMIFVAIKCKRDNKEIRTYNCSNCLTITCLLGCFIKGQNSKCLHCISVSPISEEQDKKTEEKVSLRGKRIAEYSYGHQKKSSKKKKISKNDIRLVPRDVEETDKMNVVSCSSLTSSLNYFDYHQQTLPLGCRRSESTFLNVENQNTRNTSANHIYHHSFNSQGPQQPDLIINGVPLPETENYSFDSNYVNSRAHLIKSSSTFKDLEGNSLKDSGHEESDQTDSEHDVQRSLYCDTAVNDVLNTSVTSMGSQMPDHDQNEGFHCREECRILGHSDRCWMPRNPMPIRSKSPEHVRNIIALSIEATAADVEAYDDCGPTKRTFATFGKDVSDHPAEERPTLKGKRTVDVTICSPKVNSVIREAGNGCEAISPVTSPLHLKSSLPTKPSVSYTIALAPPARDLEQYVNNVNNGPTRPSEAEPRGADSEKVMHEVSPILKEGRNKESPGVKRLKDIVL
In words: co-IP.

B1: PCDH10 (protein, UniProt Q9P2E7 19-1040)
chain: QLHYTVQEEQEHGTFVGNIAEDLGLDITKLSARGFQTVPNSRTPYLDLNLETGVLYVNEKIDREQICKQSPSCVLHLEVFLENPLELFQVEIEVLDINDNPPSFPEPDLTVEISESATPGTRFPLESAFDPDVGTNSLRDYEITPNSYFSLDVQTQGDGNRFAELVLEKPLDREQQAVHRYVLTAVDGGGGGGVGEGGGGGGGAGLPPQQQRTGTALLTIRVLDSNDNVPAFDQPVYTVSLPENSPPGTLVIQLNATDPDEGQNGEVVYSFSSHISPRARELFGLSPRTGRLEVSGELDYEESPVYQVYVQAKDLGPNAVPAHCKVLVRVLDANDNAPEISFSTVKEAVSEGAAPGTVVALFSVTDRDSEENGQVQCELLGDVPFRLKSSFKNYYTIVTEAPLDREAGDSYTLTVVARDRGEPALSTSKSIQVQVSDVNDNAPRFSQPVYDVYVTENNVPGAYIYAVSATDRDEGANAQLAYSILECQIQGMSVFTYVSINSENGYLYALRSFDYEQLKDFSFQVEARDAGSPQALAGNATVNILIVDQNDNAPAIVAPLPGRNGTPAREVLPRSAEPGYLLTRVAAVDADDGENARLTYSIVRGNEMNLFRMDWRTGELRTARRVPAKRDPQRPYELVIEVRDHGQPPLSSTATLVVQLVDGAVEPQGGGGSGGGGSGEHQRPSRSGGGETSLDLTLILIIALGSVSFIFLLAMIVLAVRCQKEKKLNIYTCLASDCCLCCCCCGGGGSTCCGRQARARKKKLSKSDIMLVQSSNVPSNPAQVPIEESGGFGSHHHNQNYCYQVCLTPESAKTDLMFLKPCSPSRSTDTEHNPCGAIVTGYTDQQPDIISNGSILSNETKHQRAELSYLVDRPRRVNSSAFQEADIVSSKDSGHGDSEQGDSDHDATNRAQSAGMDLFSNCTEECKALGHSDRCWMPSFVPSDGRQAADYRSNLHVPGMDSVPDTEVFETPEAQPGAERSFSTFGKEKALHSTLERKELDGLLTNTRAPYKPPYLTRKRIC
Regarding B1, the binding result is “binds”.

For the origin of these results see paper doi:10.1101/178822.
